The assay has as its target NRP2 b1 domain, His6-tag removed (UniProt O60462). Nature of the assay: SEC; preparative HiLoad 16/60 Superdex 75; 0.6 mM VEGF-A165-HBD with 0.06 mM NRP b1 (tenfold excess); 50 mM Tris pH 7.9, 100 mM NaCl; 30 minutes at room temperature; fractions of the single peak analysed by SDS-PAGE; both purified.

By UniProt entry, the sequences of proteins in these tests, tags left out. Where a name states a change or a piece, a line headed by the entry shows the natural chain unless it says otherwise.
UniProt O60462: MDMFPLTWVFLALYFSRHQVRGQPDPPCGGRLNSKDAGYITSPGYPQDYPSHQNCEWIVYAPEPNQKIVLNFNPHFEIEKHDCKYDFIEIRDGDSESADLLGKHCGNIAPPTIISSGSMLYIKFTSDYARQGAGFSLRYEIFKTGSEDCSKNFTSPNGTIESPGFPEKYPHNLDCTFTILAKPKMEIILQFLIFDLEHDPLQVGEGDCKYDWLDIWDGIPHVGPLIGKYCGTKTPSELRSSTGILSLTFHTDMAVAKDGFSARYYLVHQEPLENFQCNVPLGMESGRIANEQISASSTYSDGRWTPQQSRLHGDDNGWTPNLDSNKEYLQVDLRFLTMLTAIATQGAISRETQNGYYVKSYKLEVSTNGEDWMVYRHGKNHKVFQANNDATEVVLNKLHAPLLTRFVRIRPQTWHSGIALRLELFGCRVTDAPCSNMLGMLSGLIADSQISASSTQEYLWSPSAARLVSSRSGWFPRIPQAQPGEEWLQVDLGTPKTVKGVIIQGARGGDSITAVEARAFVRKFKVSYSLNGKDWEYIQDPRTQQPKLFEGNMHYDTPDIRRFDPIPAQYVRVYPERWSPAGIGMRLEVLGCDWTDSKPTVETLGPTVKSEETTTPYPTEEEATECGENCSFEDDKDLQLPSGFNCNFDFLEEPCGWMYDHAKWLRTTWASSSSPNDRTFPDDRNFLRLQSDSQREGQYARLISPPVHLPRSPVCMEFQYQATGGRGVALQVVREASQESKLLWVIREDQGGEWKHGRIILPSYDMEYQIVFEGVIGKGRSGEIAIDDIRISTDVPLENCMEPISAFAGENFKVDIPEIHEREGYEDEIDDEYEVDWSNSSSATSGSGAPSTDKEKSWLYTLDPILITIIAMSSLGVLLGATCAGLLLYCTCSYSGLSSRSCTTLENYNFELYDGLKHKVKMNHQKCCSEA

We go through one molecule from article PMC3568127.

These are yes or no findings as the source states them, for the method shown. Binding calls can cover weak binding; strength is not graded here. Where a sequence is shown, tags or fusion partners need not be part of it.

For the molecule PCGPCSERRKHLFVQDPQTCKCSCKNTDSRCKARQLELNERTCRCDKPRR (domain or fragment) [VEGF-A165-HBD with the His6-tag removed], the binding result is “binds”.
